These are yes or no findings as the source states them, for the method shown. Some entries that bind do so weakly or less than the wild type. Tags and fused reporters may be left off the sequences shown.
Target: T1, human PSGL1 19-mer-huFc (amino-terminal 19 amino acids of mature PSGL1 fused to human Fc) (human) (UniProt Q14242)
T1 sequence (sulfotyrosine and siayl lewis X carbohydrate post-translational modifications, looked up): QATEYEYLDYDFLPETEPP
Test: BLI and CHO-PSGL-1 cell binding, pH 6.0

Amino acid sequences for entries named in this document (tags omitted). A change or cut given only in a name is not applied to a line headed by its entry.
UniProt Q14242: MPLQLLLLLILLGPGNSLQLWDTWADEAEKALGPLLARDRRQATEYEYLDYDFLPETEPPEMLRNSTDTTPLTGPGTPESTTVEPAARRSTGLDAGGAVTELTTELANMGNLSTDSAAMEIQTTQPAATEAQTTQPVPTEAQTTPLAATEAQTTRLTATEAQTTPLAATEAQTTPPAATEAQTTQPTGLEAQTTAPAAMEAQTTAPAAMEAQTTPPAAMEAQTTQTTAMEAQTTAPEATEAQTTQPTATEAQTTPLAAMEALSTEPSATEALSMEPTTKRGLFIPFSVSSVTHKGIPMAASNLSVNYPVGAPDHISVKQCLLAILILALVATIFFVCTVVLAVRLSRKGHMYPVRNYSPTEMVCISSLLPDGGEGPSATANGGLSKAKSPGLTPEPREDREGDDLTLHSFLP
UniProt Q9H7M9: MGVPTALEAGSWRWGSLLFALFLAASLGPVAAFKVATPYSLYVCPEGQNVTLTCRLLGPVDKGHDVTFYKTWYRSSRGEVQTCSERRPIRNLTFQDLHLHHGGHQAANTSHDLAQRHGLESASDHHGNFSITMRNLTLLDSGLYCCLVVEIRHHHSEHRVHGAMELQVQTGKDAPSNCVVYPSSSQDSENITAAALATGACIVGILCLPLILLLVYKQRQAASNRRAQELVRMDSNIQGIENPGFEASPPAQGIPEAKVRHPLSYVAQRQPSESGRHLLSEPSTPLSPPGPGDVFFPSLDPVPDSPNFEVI

binding: binds
Substance: human VISTA-Fc H2A mutant (histidines 153-155 replaced by alanine) (from UniProt Q9H7M9 33-194) (Fc fusion)

Source: patent US20220073617A1
